Test results published in the supplement of paper PMC12889115.
The other results are listed elsewhere or left out. Values are raw readings; no control value is given beside them.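 First-pass screen: polymyxin B was added at a level that permeabilizes the Salmonella outer membrane while sparing the inner membrane. DMSO wells, with and without polymyxin B, defined maximum growth. Because plates differed from one another, each plate's data were ranked separately and the compounds with the lowest OD600 were carried forward as hits.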

System: Salmonella enterica serovar Typhimurium SL1344
Experiment: bacterial growth OD600 after 18 h with compound and polymyxin B; higher = more bacterial growth (less inhibition)
Conditions: 50 µM, Mueller-Hinton broth

Compound	bacterial growth OD600 (polymyxin B 1 µg/mL)	bacterial growth OD600 (polymyxin B 0.75 µg/mL)
CCn1ccnc1CN1CCC(Oc2cc(OC)ccc2C(=O)N2CCCC2)CC1	1.07	
Fc1ccc(Cc2noc(-c3ccc(NCc4cccnc4)nc3)n2)cc1		0.004
CC1(C)C(=O)NCCN1C(=O)CC(c1ccc(O)cc1)c1ccccc1O (stereo not given)	0.963	
O=C(NCc1cccs1)c1cn(C2CCCCC2)cc(C(=O)NC2CC2)c1=O		0.724
COc1cccc(CCC2CCCN(C(=O)CN3CCCC3=O)C2)c1 (stereo not given)		0.781
O=C(NCc1cccc(C(F)(F)F)c1)C1CC12CCN(Cc1cccc(O)c1)CC2 (stereo not given)		0.838
COc1ccccc1CN1C(=O)O[C@@H]2CN(Cc3cccc(C)n3)C[C@@H]21		0.786
COCCN1C(=O)CC(CC(=O)N(CC2CCC2)CC2CCCO2)(c2ccccc2F)C1=O (stereo not given)		0.738
CCN1C(=O)CC(CC(=O)N(CC2CCC2)CC2CCCO2)(c2cccc(C(F)(F)F)c2)C1=O (stereo not given)		0.002
CCN(Cc1nccn1C)C(=O)c1ccc(NCc2ccccc2C)nc1	0.822	
COc1ccc2cc(C(=O)C3CCCN(Cc4cccc(C)n4)C3)ccc2c1 (stereo not given)	0.765	
CCC1CN(CCNC(=O)Cn2ncc3ccccc32)Cc2cc(OC)ccc2O1 (stereo not given)		0.957
COc1ccccc1-c1ccnc(-n2ncc(C(=O)N3CCN(C/C=C/c4ccccc4)CC3)c2C)n1		0.757
Cc1ncc2c(c1CNC(=O)/C=C/c1ccccc1F)CCN(C(=O)c1coc3c1C(=O)CCC3)C2		0.809
CC(C)CCC(=O)N1CCC(C2(c3ccccn3)NC(=O)N(CCc3cccs3)C2=O)CC1 (stereo not given)		0.883
O=C(NCc1c[nH]nc1-c1ccc(F)cc1)C1CCC(=O)N(Cc2ccccn2)C1 (stereo not given)	0.776	
CN(C)c1cc(N2C[C@H]3OC(=O)N(CCc4cccc(Cl)c4)[C@H]3C2)ncn1	1.06	
CC(=O)c1cccc(OCc2cc(C(=O)N(C)Cc3cc(C)no3)n[nH]2)c1	0.819	
Cc1ccc(F)c(CNC2CCN(c3ccc(C(=O)NCc4ccc5c(c4)OCO5)cc3)CC2)c1F		0.333
COCC1CCN(c2ccc(C(=O)N3CCCC(COC)C3)cn2)CC1 (stereo not given)	0.892	

3 structures out of the list, ordered by molecular weight, ascending.
Compound	bacterial growth OD600 (polymyxin B 1 µg/mL)	bacterial growth OD600 (polymyxin B 0.75 µg/mL)
CC1(C)C(=O)NCCN1C(=O)CC(c1ccc(O)cc1)c1ccccc1O (stereo not given)	0.963	
CCC1CN(CCNC(=O)Cn2ncc3ccccc32)Cc2cc(OC)ccc2O1 (stereo not given)		0.957
COCCN1C(=O)CC(CC(=O)N(CC2CCC2)CC2CCCO2)(c2ccccc2F)C1=O (stereo not given)		0.738
